Measurements reported in PubChem BioAssay AID1259405 (NCATS, 2018)

Test: 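Knock-downs that lift recombinant protein yield in hamster ovary cells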 (primary screen)
Cells: Chinese hamster CHO-K1 ovary cells with stable secreted eGFP expression
Reagent: single siRNA against mouse genes, 0.8 pmol siRNA per well (2 µl of 400 nM stock)
Timing: 3 days
Measurement: 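Per-well intracellular GFP measured by laser scanning cytometry, plus viability from ATP luminescence, each relative to plate median of non-targeting control wells, in %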
Direction: GFP, % of control: higher = more GFP per well, higher productivity; viability (ATP), % of control: higher = more viable cells (more ATP)
Call rule: 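a knock-down is called active if GFP reaches 120% or more of non-targeting control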
The whole screen tested about 50,000 reagents; shown is a random part of them. Over the whole deposit, about 4,000 (8%) got an active call. 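Mouse siRNA library applied to hamster cells; one well for each siRNA.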 Reagents against one gene are numbered here.

target | reagent | GFP, % of control | viability (ATP), % of control | Call
H2bc4 (GeneID 68024) | 1 | 82.2 | 76.7 | inactive
H2bc4 (GeneID 68024) | 2 | 63.8 | 68.5 | inactive
H2bc4 (GeneID 68024) | 3 | 67.3 | 61.9 | inactive
Foxa1 (GeneID 15375) | 1 | 94.5 | 131 | inactive
Foxa1 (GeneID 15375) | 2 | 124 | 89.4 | active
Gjd2 (GeneID 14617) | 1 | 91.8 | 90.6 | inactive
Gjd2 (GeneID 14617) | 2 | 92.6 | 88 | inactive
Gjd2 (GeneID 14617) | 3 | 77.7 | 125 | inactive
Sofu1 (GeneID 76606) | 1 | 37.8 | 71.7 | inactive
Sofu1 (GeneID 76606) | 2 | 43.4 | 50.9 | inactive
Sofu1 (GeneID 76606) | 3 | 73.5 | 85.2 | inactive
Eif2ak4 (GeneID 27103) | 1 | 101 | 102 | inactive
Eif2ak4 (GeneID 27103) | 2 | 51.2 | 33.3 | inactive
Eif2ak4 (GeneID 27103) | 3 | 69.2 | 96.1 | inactive
Tcf23 (GeneID 69852) | 1 | 104 | 80.6 | inactive
Tcf23 (GeneID 69852) | 2 | 74.2 | 70.4 | inactive
Tcf23 (GeneID 69852) | 3 | 37.9 | 63.8 | inactive
Cntfr (GeneID 12804) | 1 | 119 | 109 | inactive
Cntfr (GeneID 12804) | 2 | 78.4 | 51 | inactive
Cntfr (GeneID 12804) | 3 | 192 | 88.6 | active
Rbfox1 (GeneID 268859) | 1 | 77.7 | 94.5 | inactive
Rbfox1 (GeneID 268859) | 2 | 118 | 109 | inactive
Rbfox1 (GeneID 268859) | 3 | 99.7 | 63 | inactive
4933427D14Rik (GeneID 74477) | 1 | 77.2 | 91 | inactive
4933427D14Rik (GeneID 74477) | 2 | 70.4 | 87.2 | inactive
4933427D14Rik (GeneID 74477) | 3 | 102 | 112 | inactive
Lect2 (GeneID 16841) | 1 | 140 | 122 | active
Lect2 (GeneID 16841) | 2 | 49.7 | 55 | inactive
Hic2 (GeneID 58180) | 1 | 84.1 | 62.6 | inactive
Hic2 (GeneID 58180) | 2 | 95.9 | 51.8 | inactive
Hic2 (GeneID 58180) | 3 | 79 | 76.2 | inactive
Hpd (GeneID 15445) | 1 | 141 | 83.2 | active
Hpd (GeneID 15445) | 2 | 69.7 | 78.2 | inactive
Hpd (GeneID 15445) | 3 | 26.2 | 31.8 | inactive
Map2k3 (GeneID 26397) | 1 | 141 | 57.3 | active
Map2k3 (GeneID 26397) | 2 | 39.1 | 18.7 | inactive
Map2k3 (GeneID 26397) | 3 | 76.3 | 72.3 | inactive
Ppargc1b (GeneID 170826) | 1 | 65.3 | 80.3 | inactive
Ppargc1b (GeneID 170826) | 2 | 132 | 119 | active
Syk (GeneID 20963) | 1 | 70.4 | 60.8 | inactive
Syk (GeneID 20963) | 2 | 85.5 | 65.7 | inactive
Syk (GeneID 20963) | 3 | 82.5 | 65.9 | inactive
Klra4 (GeneID 16635) | 1 | 52.1 | 59.7 | inactive
Klra4 (GeneID 16635) | 2 | 143 | 50.1 | active
Klra4 (GeneID 16635) | 3 | 162 | 75.2 | active
Ankrd6 (GeneID 140577) | 1 | 104 | 66.7 | inactive
Ankrd6 (GeneID 140577) | 2 | 107 | 97.7 | inactive
Ankrd6 (GeneID 140577) | 3 | 79.3 | 85.6 | inactive
Fam193b (GeneID 212483) | 1 | 37.8 | 23.3 | inactive
Fam193b (GeneID 212483) | 2 | 64 | 91.2 | inactive
Fam193b (GeneID 212483) | 3 | 112 | 121 | inactive
Ppp3r2 (GeneID 19059) | 1 | 83 | 107 | inactive
Ppp3r2 (GeneID 19059) | 2 | 45.5 | 68.5 | inactive
Ppp3r2 (GeneID 19059) | 3 | 64.1 | 81.5 | inactive
Rgs8 (GeneID 67792) | 1 | 118 | 87.5 | inactive
Rgs8 (GeneID 67792) | 2 | 118 | 149 | inactive
Rgs8 (GeneID 67792) | 3 | 73.5 | 103 | inactive
Vmn2r30 (GeneID 22306) | 1 | 80.8 | 71.6 | inactive
Vmn2r30 (GeneID 22306) | 2 | 84.7 | 94.6 | inactive
Vmn2r30 (GeneID 22306) | 3 | 56.7 | 61.7 | inactive
Mest (GeneID 17294) | 1 | 54.9 | 71.5 | inactive
Mest (GeneID 17294) | 2 | 76.2 | 75.6 | inactive
Mest (GeneID 17294) | 3 | 54.5 | 52.4 | inactive
Ankfn1 (GeneID 382543) | 1 | 18.8 | 24.4 | inactive
Ankfn1 (GeneID 382543) | 2 | 76.4 | 71.9 | inactive
Ankfn1 (GeneID 382543) | 3 | 34.4 | 82.2 | inactive
Mms19 (GeneID 72199) | 1 | 83.3 | 102 | inactive
Mms19 (GeneID 72199) | 2 | 96.3 | 49.1 | inactive
Mms19 (GeneID 72199) | 3 | 64.4 | 94.4 | inactive
Vegfa (GeneID 22339) | 1 | 64.6 | 64.5 | inactive
Vegfa (GeneID 22339) | 2 | 51.4 | 35 | inactive
Vegfa (GeneID 22339) | 3 | 76.6 | 51.7 | inactive
Or5d39 (GeneID 258291) | 1 | 35.5 | 49.2 | inactive
Or5d39 (GeneID 258291) | 2 | 109 | 62.6 | inactive
Or5d39 (GeneID 258291) | 3 | 59.9 | 78.3 | inactive
Slc2a4 (GeneID 20528) | 1 | 101 | 106 | inactive
Slc2a4 (GeneID 20528) | 2 | 78.8 | 87.6 | inactive
Slc2a4 (GeneID 20528) | 3 | 113 | 110 | inactive
Slc33a2 (GeneID 69572) | 1 | 91.1 | 86.9 | inactive
Slc33a2 (GeneID 69572) | 2 | 38.8 | 61 | inactive
Slc33a2 (GeneID 69572) | 3 | 76.3 | 85.9 | inactive
Cer1 (GeneID 12622) | 1 | 81.8 | 77.5 | inactive
Cer1 (GeneID 12622) | 2 | 102 | 75.6 | inactive
Cer1 (GeneID 12622) | 3 | 80.7 | 93.7 | inactive

Quoted from above, 4 entries:
target | reagent | GFP, % of control | viability (ATP), % of control | Call
Klra4 (GeneID 16635) | 3 | 162 | 75.2 | active
Ankrd6 (GeneID 140577) | 1 | 104 | 66.7 | inactive
Ankrd6 (GeneID 140577) | 2 | 107 | 97.7 | inactive
Ankrd6 (GeneID 140577) | 3 | 79.3 | 85.6 | inactive
